The text below walks through data of the supplement of paper PMC10849652.

The chains behind the UniProt entries cited, without tags or fusion partners. Where a name states a change or a piece, a line headed by the entry shows the natural chain unless it says otherwise.
UniProt O94782: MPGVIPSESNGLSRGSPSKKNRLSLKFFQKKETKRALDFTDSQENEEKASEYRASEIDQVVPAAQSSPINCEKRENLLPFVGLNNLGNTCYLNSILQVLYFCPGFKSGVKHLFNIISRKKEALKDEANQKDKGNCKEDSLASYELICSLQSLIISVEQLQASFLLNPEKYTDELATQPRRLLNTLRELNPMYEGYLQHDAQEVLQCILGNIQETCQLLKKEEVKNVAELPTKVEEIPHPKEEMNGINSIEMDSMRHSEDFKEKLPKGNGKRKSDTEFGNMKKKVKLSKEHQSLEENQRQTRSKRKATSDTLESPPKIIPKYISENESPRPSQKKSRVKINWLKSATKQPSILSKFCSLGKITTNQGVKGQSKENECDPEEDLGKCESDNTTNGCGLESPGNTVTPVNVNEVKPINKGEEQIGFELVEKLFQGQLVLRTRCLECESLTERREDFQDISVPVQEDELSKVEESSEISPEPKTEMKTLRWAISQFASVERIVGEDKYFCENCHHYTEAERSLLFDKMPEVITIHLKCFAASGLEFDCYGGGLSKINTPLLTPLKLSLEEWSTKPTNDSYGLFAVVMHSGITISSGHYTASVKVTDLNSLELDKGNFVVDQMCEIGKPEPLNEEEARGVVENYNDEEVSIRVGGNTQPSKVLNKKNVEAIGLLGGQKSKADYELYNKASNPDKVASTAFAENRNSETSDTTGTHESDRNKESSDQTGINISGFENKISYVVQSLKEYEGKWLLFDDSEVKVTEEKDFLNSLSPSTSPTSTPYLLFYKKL
UniProt Q9BZM5, whole entry, looked up: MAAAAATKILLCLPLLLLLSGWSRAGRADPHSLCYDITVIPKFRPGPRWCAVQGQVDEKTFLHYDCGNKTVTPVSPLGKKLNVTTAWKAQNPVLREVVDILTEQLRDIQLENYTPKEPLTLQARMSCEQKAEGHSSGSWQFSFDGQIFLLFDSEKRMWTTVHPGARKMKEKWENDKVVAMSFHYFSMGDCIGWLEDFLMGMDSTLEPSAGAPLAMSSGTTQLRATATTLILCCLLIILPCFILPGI
UniProt Q16880: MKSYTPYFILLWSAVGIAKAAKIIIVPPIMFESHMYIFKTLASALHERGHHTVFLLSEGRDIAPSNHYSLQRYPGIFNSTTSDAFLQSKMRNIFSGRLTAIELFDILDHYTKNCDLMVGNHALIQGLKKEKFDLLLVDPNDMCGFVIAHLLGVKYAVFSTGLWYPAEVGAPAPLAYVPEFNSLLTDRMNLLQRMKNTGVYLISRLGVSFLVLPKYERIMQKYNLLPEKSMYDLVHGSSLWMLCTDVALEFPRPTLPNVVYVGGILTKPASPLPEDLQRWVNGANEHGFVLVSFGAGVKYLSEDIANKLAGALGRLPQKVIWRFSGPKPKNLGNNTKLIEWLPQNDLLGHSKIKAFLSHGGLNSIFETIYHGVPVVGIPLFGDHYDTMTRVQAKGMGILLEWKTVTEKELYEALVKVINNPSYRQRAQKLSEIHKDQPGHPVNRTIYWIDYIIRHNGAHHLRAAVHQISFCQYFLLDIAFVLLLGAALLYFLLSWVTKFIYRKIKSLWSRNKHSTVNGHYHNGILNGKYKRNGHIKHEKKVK
UniProt P10746: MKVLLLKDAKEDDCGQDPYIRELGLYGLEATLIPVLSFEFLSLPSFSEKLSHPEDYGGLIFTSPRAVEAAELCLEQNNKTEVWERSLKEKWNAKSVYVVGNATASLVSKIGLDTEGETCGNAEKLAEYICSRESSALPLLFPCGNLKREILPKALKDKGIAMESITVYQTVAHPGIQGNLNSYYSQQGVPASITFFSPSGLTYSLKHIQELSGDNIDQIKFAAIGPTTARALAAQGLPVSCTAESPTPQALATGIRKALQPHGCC
UniProt P14927: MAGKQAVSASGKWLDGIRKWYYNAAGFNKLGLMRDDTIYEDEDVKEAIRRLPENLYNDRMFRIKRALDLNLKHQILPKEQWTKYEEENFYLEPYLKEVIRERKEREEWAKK
UniProt Q9BRT2: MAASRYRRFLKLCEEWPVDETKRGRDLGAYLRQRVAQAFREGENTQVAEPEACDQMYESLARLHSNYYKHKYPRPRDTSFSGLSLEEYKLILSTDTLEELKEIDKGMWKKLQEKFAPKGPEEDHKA
UniProt Q96RL1: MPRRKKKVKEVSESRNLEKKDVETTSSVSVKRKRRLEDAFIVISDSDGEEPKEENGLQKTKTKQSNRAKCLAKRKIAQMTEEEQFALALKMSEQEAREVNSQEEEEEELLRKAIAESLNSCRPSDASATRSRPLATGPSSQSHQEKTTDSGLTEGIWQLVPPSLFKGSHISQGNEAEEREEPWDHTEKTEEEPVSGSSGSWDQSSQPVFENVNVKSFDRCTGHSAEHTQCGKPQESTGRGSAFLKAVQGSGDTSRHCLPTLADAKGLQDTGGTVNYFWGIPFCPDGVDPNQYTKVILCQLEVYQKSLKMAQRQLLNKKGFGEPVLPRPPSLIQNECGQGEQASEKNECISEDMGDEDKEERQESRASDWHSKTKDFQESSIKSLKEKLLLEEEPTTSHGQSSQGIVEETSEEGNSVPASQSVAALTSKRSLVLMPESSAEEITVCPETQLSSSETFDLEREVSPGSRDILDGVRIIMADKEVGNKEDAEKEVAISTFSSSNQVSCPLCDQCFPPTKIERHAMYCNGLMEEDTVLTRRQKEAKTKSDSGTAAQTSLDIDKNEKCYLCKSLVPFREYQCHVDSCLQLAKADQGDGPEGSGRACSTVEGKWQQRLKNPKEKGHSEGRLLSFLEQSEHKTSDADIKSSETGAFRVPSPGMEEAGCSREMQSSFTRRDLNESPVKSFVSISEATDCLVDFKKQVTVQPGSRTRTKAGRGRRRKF
UniProt P55072, whole entry, looked up: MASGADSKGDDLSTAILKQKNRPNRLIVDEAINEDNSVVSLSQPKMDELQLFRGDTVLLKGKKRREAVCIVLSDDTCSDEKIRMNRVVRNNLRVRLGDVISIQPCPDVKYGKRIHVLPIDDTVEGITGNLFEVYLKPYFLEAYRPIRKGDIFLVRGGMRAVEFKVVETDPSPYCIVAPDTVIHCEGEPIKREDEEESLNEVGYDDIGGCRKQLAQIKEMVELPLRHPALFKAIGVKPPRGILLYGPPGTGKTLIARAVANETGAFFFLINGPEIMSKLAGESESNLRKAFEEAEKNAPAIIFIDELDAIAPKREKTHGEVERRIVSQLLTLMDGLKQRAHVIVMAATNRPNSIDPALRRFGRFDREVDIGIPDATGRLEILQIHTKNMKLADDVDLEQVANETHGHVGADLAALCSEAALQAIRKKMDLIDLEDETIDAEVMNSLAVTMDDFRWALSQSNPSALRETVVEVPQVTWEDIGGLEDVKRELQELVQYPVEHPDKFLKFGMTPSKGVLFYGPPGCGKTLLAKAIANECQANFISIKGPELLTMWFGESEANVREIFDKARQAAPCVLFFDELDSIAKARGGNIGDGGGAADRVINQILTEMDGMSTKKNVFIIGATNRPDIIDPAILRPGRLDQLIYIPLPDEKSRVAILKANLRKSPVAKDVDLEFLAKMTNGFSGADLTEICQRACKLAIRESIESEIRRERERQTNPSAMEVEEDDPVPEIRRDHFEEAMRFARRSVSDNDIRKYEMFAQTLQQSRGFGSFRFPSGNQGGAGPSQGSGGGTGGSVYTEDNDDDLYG
UniProt P50552: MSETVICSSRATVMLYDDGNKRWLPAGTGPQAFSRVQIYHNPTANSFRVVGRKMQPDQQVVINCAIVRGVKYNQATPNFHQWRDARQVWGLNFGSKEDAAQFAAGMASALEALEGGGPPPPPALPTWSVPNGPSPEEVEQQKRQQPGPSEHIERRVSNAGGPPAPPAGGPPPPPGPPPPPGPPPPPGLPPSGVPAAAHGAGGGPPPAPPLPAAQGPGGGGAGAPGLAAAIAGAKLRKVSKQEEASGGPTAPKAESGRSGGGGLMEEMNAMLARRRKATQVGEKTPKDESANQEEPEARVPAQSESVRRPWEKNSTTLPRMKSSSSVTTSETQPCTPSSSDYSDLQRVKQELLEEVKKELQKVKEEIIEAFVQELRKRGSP
UniProt O75379: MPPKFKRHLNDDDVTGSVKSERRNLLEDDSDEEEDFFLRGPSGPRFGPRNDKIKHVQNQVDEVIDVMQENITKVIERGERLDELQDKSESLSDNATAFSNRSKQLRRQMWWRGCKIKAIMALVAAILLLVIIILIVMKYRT
UniProt Q70CQ3: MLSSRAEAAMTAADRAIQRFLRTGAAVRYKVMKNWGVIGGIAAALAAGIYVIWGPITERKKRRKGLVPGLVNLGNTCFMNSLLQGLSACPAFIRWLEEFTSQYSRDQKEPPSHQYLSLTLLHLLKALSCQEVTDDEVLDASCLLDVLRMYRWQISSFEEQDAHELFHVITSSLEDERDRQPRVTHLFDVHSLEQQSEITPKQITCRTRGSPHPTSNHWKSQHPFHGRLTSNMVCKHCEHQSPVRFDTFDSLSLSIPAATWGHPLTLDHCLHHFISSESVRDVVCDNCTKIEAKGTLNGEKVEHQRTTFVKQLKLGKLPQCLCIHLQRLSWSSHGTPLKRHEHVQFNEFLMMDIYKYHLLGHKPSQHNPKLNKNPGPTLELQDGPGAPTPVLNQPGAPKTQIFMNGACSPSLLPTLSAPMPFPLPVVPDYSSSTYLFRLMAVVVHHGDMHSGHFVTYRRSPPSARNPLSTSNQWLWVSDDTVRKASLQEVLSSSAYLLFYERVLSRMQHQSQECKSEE
UniProt Q9UPT9: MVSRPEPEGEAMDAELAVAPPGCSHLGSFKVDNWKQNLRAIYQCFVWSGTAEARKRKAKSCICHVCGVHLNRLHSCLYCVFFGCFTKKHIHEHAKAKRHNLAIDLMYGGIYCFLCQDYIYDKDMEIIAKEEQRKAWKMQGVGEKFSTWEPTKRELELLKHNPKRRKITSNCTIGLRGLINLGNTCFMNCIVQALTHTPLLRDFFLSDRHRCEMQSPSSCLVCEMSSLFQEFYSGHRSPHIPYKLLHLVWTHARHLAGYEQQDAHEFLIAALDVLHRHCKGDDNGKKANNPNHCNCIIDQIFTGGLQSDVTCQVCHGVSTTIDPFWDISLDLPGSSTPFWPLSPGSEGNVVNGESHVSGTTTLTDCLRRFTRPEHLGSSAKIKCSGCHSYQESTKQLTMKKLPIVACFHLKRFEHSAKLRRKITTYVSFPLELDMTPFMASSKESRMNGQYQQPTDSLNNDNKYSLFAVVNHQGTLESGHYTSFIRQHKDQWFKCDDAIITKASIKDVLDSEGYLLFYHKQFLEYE
UniProt Q9BZL1: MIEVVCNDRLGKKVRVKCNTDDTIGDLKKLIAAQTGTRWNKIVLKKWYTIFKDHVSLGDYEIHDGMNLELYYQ
UniProt C9J7I0: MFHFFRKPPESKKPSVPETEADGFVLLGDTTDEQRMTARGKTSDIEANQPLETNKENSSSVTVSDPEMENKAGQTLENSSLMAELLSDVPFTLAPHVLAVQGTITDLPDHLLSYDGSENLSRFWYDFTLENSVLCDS
UniProt Q96BW1: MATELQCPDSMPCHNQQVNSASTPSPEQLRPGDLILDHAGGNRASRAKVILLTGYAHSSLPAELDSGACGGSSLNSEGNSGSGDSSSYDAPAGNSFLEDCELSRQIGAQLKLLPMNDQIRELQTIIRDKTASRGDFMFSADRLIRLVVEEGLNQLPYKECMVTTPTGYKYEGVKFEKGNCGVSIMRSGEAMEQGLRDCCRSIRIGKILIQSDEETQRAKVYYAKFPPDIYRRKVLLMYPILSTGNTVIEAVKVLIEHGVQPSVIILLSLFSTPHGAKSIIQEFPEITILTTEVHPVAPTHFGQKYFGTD
UniProt Q92738: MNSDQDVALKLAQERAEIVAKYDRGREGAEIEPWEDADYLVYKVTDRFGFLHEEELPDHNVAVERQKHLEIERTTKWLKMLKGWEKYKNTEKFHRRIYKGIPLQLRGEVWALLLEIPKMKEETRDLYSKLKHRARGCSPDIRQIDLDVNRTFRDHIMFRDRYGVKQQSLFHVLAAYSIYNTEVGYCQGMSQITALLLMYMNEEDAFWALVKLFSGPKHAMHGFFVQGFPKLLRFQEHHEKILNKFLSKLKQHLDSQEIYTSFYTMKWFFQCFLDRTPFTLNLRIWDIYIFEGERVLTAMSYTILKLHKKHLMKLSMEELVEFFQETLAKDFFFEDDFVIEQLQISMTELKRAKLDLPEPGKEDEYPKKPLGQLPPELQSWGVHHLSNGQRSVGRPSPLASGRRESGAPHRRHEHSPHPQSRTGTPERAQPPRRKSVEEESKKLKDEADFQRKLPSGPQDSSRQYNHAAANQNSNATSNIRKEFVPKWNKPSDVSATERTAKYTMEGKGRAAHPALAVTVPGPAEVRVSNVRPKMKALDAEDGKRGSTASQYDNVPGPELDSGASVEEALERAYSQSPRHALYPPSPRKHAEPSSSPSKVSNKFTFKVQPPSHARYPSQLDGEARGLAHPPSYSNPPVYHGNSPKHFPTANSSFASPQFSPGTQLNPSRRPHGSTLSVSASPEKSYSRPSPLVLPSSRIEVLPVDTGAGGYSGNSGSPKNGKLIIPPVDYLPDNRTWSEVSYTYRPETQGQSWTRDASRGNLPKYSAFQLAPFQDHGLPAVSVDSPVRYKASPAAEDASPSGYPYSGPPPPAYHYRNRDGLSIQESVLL

This is one part of the list.

Compound in the experiment: c1cn2cc(-c3ccc4cn[nH]c4c3)nc(Nc3ccc(N4CCOCC4)cc3)c2n1 [entospletinib]
Nature of the experiment: log2 fold change, soluble protein after heating vs DMSO (PISA); higher = thermal stabilisation; K562 cells, 10 uM, 30 min; active = over 0.2 and 3.5 SD of the protein, either way, in both replicates (recomputed). The method, boiled down:
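K562 cells at 2×10^6 cells/mL were exposed to 10 μM compound for 30 min, then aliquots were heated for 3 min across 48°C-58°C, pooled, and extracted in PBS containing 0.5% NP-40 at 4°C. The supernatant after 21,000xg for 90 min was taken as soluble protein and measured by TMTpro 16plex LC-MS/MS with channel sums equalised. Thermal stability is reported relative to control samples, with values from duplicates. Fold changes are given on a log2 scale.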
For the target USP1 (UniProt O94782), the log2 fold change was inactive: 0.109. As for UQCRC2 (UniProt P22695), the figure is inactive: -0.015; as for ULBP2 (UniProt Q9BZM5), inactive: -0.013; as for UGT8 (UniProt Q16880), inactive: 0.328. As for UROS (UniProt P10746), the figure is inactive: 0.05.

Consider UBR4 isoform 2 (UniProt Q5T4S7), for which the log2 fold change is inactive: 0.049.

For the target UQCRB (UniProt P14927), the log2 fold change was inactive: 0.009. The same measure for UQCC2 (UniProt Q9BRT2): inactive: 0.045; for UIMC1 (UniProt Q96RL1): inactive: 0.078. As for VCP (UniProt P55072), the figure is inactive: -0.001; as for VASP (UniProt P50552), inactive: 0.015.

As to VAMP4 (UniProt O75379), the log2 fold change was inactive: 0.023. The same measure for USP30 (UniProt Q70CQ3): inactive: 0.064; for VANGL1 (UniProt Q8TAA9): inactive: 0.107; for USP22 (UniProt Q9UPT9): inactive: 0.015.

As to UNK (UniProt Q9C0B0), the log2 fold change is inactive: 0.028. The same measure for UBL5 (UniProt Q9BZL1): inactive: 0.089; for UMAD1 (UniProt C9J7I0): inactive: 0.071. As for UQCC1 (UniProt Q9NVA1), the figure is inactive: 0.004; as for UPRT (UniProt Q96BW1), inactive: 0.031; as for UCK2 (UniProt Q9BZX2), inactive: -0.039. The same measure for USP6NL isoform 2 (UniProt Q92738): inactive: -0.233; for UPF2 (UniProt Q9HAU5): inactive: 0.196; for USP5 (UniProt P45974): inactive: -0.038.
